According to US7202261B2, “Calcilytic compounds” (NPS Pharmaceuticals, Inc., priority 1996, dated 2007):
Some of these results come from one statement about several compounds together. At least one structure is not confirmed: it was looked up by name or label, or the drawing left a doubt.

Target: T1, human calcium receptor (Homo sapiens, UniProt P41180)
T1 construct: expressed in transfected cells
T1 sequence (P41180 20-1078): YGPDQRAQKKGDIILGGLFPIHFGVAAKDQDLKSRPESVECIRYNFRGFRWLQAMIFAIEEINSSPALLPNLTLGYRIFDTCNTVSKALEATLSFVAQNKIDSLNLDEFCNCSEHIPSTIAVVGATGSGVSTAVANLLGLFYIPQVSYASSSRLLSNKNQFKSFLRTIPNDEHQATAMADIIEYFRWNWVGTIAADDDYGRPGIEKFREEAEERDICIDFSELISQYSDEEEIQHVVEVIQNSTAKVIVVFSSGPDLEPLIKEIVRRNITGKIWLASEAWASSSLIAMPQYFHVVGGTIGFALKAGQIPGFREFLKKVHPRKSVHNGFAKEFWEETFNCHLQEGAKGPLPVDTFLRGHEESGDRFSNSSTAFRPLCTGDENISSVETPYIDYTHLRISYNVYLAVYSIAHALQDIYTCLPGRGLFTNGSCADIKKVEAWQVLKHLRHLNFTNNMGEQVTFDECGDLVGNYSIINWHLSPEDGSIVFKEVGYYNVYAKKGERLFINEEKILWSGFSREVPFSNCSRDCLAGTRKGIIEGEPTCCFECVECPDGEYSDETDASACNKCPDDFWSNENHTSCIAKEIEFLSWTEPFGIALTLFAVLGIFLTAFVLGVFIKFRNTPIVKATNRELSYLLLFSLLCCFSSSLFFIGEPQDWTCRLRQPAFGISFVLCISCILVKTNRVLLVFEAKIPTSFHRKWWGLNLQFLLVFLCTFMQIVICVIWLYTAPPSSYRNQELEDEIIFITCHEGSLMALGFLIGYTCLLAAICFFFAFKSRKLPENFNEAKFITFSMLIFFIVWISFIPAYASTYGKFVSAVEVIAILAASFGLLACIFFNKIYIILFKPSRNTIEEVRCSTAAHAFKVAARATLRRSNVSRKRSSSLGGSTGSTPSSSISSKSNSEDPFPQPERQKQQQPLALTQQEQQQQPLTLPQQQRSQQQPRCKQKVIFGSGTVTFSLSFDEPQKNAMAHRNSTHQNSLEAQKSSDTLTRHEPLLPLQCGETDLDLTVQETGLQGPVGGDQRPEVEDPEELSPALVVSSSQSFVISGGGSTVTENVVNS
Assay: Calcium Receptor Inhibitor Assay
Type: cell-based
Settings: HEK 293 4.0–7 cells stably expressing the human calcium receptor; fluo-3; read-out: IC50 for blocking increases of intracellular Ca2+ elicited by extracellular Ca2+
Procedure: This example illustrates the use of the Calcium Receptor Inhibitor Assay. […] Res. 10 Suppl. […] Intracellular Ca^2+ was measured using fluo-3, a fluorescent calcium indicator.
The procedure was as follows:
1. Cells were maintained in T-150 flasks in selection media (DMEM supplemented with 10% fetal bovine serum and 200 μg/mL hygromycin B), under 5% CO2:95% air at 37° C. and were grown up to 90% confluency.
2. The medium was decanted and the cell monolayer was washed twice with phosphate-buffered saline (PBS) kept at 37° C. After the second wash, 6 mL of 0.02% EDTA in PBS was added and incubated for 4 minutes at 37° C. Following the incubation, cells were dispersed by gentle agitation.
3. Cells from 2 or 3 flasks were pooled and pelleted (100×g). The cellular pellet was resuspended in […] of SPF-PCB+ and pelleted again by centrifugation. This washing was done twice.
SPF-PCB was made up and stored at 4° C. On the day of use, SPF-PCB was supplemented with 1 mg/mL of D-glucose and 1 mM CaCl2 and then split into two fractions. To one fraction, bovine serum albumin (BSA; fraction V, ICN) was added at 5 mg/mL (SPF-PCB+). This buffer was used for washing, loading and maintaining the cells. The BSA-free fraction was used for diluting the cells in the cuvette for measurements of fluorescence.
5. Following the incubation period, the cells were pelleted by centrifugation. The resulting pellet was washed with SPF-PCB+. After this washing, cells were resuspended in SPF-PCB+ at a density of 1–2×10^6 cells/mL.
6. […] Measurements of fluorescence were performed at 37° C. with constant stirring using a spectrofluorimeter. […] To calibrate fluorescence signals, digitonin (5 mg/mL in ethanol) was added to obtain Fmax, and the apparent Fmin was determined by adding Tris-EGTA (2.5 M Tris-Base, 0.3 M EGTA).
7. […] Calcilytic compounds were detected by their ability to block, in a concentration-dependent manner, increases in the concentration of intracellular Ca^2+ elicited by extracellular Ca^2+.

Row | Compound | IC50
1 | N-[(2-hydroxy-3-(4-nitrophenoxy)propyl]-1,1-dimethyl-2-(4-methoxyphenyl)ethylamine Hydrochloride [Compound 158] | < 10 µM
2 | N-[2R-Hydroxy-3-[(2-bromopyridinyloxy)-propyl]-1,1-dimethyl-2-(4-methoxy)ethylamine [Compound 168] | < 1 µM
3 | COc1ccc(CC(C)(C)NCC(O)COc2cccc(N(C)C)c2)cc1 (stereo not drawn) [Compound 169, N-(2-hydroxy-3-(3-N,N-dimethylphenoxy)propyl)-1,1-dimethyl-2-(-4-methoxyphenyl)ethylamine] | < 10 µM
